This note sets out measurements from PMC12669770.

Amino acid sequences for entries named in this document (tags omitted).
UniProt Q14534: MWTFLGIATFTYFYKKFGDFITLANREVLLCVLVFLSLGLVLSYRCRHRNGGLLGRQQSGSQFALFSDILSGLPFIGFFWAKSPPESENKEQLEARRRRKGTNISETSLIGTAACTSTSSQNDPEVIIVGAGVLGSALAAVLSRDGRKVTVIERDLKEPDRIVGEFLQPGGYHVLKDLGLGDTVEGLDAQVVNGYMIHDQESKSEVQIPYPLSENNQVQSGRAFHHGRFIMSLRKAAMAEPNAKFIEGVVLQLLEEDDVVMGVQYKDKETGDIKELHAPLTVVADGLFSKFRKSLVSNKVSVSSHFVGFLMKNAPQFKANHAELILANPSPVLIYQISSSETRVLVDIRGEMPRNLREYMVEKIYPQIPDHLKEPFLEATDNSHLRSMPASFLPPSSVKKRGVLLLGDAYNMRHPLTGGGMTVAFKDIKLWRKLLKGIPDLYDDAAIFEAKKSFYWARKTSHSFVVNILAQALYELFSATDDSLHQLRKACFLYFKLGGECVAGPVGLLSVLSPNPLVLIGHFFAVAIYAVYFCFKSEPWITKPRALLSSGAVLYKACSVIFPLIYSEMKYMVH
UniProt Q86T03: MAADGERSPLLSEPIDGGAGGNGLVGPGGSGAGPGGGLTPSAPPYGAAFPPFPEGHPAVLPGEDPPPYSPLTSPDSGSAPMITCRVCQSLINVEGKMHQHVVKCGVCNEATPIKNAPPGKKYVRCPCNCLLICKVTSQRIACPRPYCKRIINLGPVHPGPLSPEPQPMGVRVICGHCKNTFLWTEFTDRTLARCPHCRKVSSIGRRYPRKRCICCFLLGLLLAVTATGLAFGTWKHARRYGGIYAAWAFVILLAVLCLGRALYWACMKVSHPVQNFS

Assay [1] deals with V5-miniTurbo-mCherry-p62 (human) (UniProt Q13501). The assay is described as follows: proximity labelling; miniTurbo-mCherry-p62 stably expressed in RPE1 cells, with or without 72 h ATG5 siRNA knock-down; 500 µM biotin and 5 mM ATP for 2 h at 37 °C; streptavidin pull-down and mass spectrometry; proteins found in the mCherry-p62 control removed.
Assay [2] has the same target. The assay is described as follows: condition: only cells with endogenous ATG5 (no ATG5 knock-down); proximity labelling; miniTurbo-mCherry-p62 RPE1 cells with endogenous ATG5 (no knock-down); 500 µM biotin and 5 mM ATP for 2 h at 37 °C; streptavidin pull-down and mass spectrometry.

Results are given in words; binding and its absence hold for the method and conditions named. Binding seen in cells or lysates may run through a third protein. A yes stands for co-enrichment or nearness to the bait. Other partners may have been found. For some of these results: A no says only that the protein was not detected with the bait.

On to ITPR2 (from UniProt Q14571 1-2701), for which the binding result is “binds” in assay [1] and “no binding” in assay [2].

As to SQLE (from UniProt Q14534 1-574), the binding result in assay [1] was “binds”.

For PIP4P1 (from UniProt Q86T03 1-277), in assay [1], the binding result was “binds”.
